Test results published in article PMC9957399, “New Insights into the Inhibition of Hesperetin on Polyphenol Oxidase: Inhibitory Kinetics, Binding Characteristics, Conformational Change and Computational Simulation” (Foods, 2023).

Test system: T1, PPO
T1 construct: purchased Worthington Biochemical Co. (Lakewood, CO, USA)
Assay: Fluorometric titration (fluorescence quenching of PPO)
Format: binding, mushroom
Description: Fluorescence spectra were measured at 298, 304 and 310 K by a fluorophotometer (F–7000, Hitachi, Tokyo, Japan). Briefly, the concentration of PPO was 2.0 μM, and the same volume of hesperetin was added into the PPO solution (2.0 mL) 10 times (0→25.0 μM). After each addition of hesperetin, 3 min was timed to equilibrate the mixed system. Then, the emission spectra (290–500 nm) were scanned at fixed excitation wavelength (280 nm).
To deduct the effect of internal filtration, all measured fluorescence data were processed through Formula (5):(5) FC=FMe^(A1+A2)/2 where FC and FM represent the corrected and detected fluorescence, respectively. A1 and A2 stand for the absorbance values of hesperetin at excitation and emission wavelengths, respectively.
The Stern–Volmer curves for PPO fluorescence quenched by hesperetin at each temperature were obtained through Equation (6):(6) F0/F=1+Kqτ0[Q]=1+Ksv[Q] where F and F0 denote the fluorescence intensity of PPO with and without hesperetin, respectively. Ksv, Kq and [Q] represent the fluorescence quenching constant, quenching rate constant and the concentration of hesperetin, respectively. τ0 represents the average fluorophore lifetime without hesperetin, and its value is usually equal to 10^−8 s.
Based on the following equation, the information about the interaction between hesperetin and PPO were obtained, including binding constant (Ka) and binding number (n):(7) logF0−F/F=nlogKa−nlog1/[Qt]−(F0−F)[Pt]/F0 where [Qt] and [Pt] stand for the concentrations of hesperetin and PPO. […] The n values at 298, 304 and 310 K were all equal to 1, implying that only one site existed when hesperetin interacted with PPO.
The values of ΔH°, ΔS° and ΔG°, which refer to enthalpy change, entropy change and free energy change, respectively, were obtained by the van ’t Hoff equations [42]:(8) logKa=−ΔH°/2.303RT+ΔS°/2.303R (9) ΔG°=ΔH°−TΔS° where T represents temperature; R represents gas constant, and its value is 8.314 J mol^−1 K^−1.

COc1ccc([C@@H]2CC(=O)c3c(O)cc(O)cc3O2)cc1O [hesperetin, Hesperetin]
ΔG° (298 K): -5.853 kcal/mol | ΔG° (304 K): -6.006 kcal/mol | ΔG° (310 K): -6.159 kcal/mol | ΔS° (van 't Hoff, 298–310 K): 107.22 J mol^−1K^−1
